For 3 compounds, Potency results are on record in PubChem BioAssay (NCATS).

Assay [1] is described as follows: BET inhibitor-based combinations targeting novel dependencies in MECOM-rearranged (r) AML: SET-2 cell line (AID 2202231). Further: nearly all actives have a fitted effect of over 35% in size. Conditions: SET-2 AML cells viability, CellTiter-Glo luminescence, 48 h. The method in brief:
(§1)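 Here, 11-point titrations of each agent were applied to 500 seeded cells and incubated 48 hr; CellTiter-Glo signal, scaled against DMSO and empty wells, was integrated as AUC, then Z-scored within the individual line.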
For orientation: In ATP-based viability assays light output follows the ATP content of the culture.

Assay [2] in a line: BET inhibitor-based combinations targeting novel dependencies in MECOM-rearranged (r) AML: OCI-AML3 cell line (AID 2202232). Further: nearly all actives have a fitted effect of over 35% in size. To be noted: CellTiter-Glo luminescence, 48 h; Potency: OCI-AML3 viability; series mostly up to 46 µM. The source says:
(§2) Ecotropic viral insertion site 1 (EVI1) is located on chromosome 3q26.2 as part of the MECOM (MDS and EVI1 complex) locus. Under normal hematopoiesis, EVI1 is a regulator of hematopoietic stem cell maintenance and self-renewal and EVI1 levels decrease as the cells differentiate. In approximately 5-10% of de novo acute myeloid leukemia (AML) EVI1 is aberrantly expressed, including Chromosomal inv(3)(q21;q26.2) or t(3;3)(q21;q26.2) alterations (MECOM-r) that account for about 50% of AML with EVI1 overexpression 31. AMLs with high levels of EVI1 have a poor prognosis and an overall survival time averaging between 10-14 months. EVI1 overexpression confers resistance in leukemia cells, highlighting the need to develop new targeted therapies for EVI1 overexpressing AMLs. […]
(§3) A collection of 2480 mechanistically annotated dugs (MIPE v5.0) was used to screen four 3q26.2 rearranged AML cell lines and three non-3q26.2 rearranged AML cell lines. […] Cell viability was determined by luminescence based, Cell Titer Glo assay (Promega). […] Luminescence readings were taken using a Viewlux (PerkinElmer) with a 2 s exposure time per plate. […] Quantitative drug activity data from dose-response curves was determined utilizing area Under the Curve (AUC) and Z-transformed AUC (Z-AUC, a mean-centering transformation applied to each individual cell-line screened).

The nature of assay [3]: BET inhibitor-based combinations targeting novel dependencies in MECOM-rearranged (r) AML: HNT-34 cell line (AID 2202234). Further: nearly all actives have a fitted effect of over 35% in size. Conditions: HNT-34 AML viability, CellTiter-Glo luminescence, 48 h.
Source text: as §2, §3

The nature of assay [4]: BET inhibitor-based combinations targeting novel dependencies in MECOM-rearranged (r) AML: UCSD-AML1 cell line (AID 2202235). Further: nearly all actives have a fitted effect of over 40% in size. To be noted: UCSD-AML1 AML cells viability, CellTiter-Glo, 48 h.
Source text: Ecotropic viral insertion site 1 (EVI1) is located on chromosome 3q26.2 as part of the MECOM (MDS and EVI1 complex) locus. Under normal hematopoiesis, EVI1 is a regulator of hematopoietic stem cell maintenance and self-renewal and EVI1 levels decrease as the cells differentiate. In approximately 5-10% of de novo acute myeloid leukemia (AML) EVI1 is aberrantly expressed, including Chromosomal inv(3)(q21;q26.2) or t(3;3)(q21;q26.2) alterations (MECOM-r) that account for about 50% of AML with EVI1 overexpression 31. AMLs with high levels of EVI1 have a poor prognosis and an overall survival time averaging between 10-14 months. EVI1 overexpression confers resistance in leukemia cells, highlighting the need to develop new targeted therapies for EVI1 overexpressing AMLs. Here, we performed an unbiased chemical drug screening by evaluating the single agent activity of a collection of 2,480 oncology-focused, approved and investigational drugs (NCATS Mechanism Interrogation Plates, MIPE v5.0) against a panel of seven AML cell lines. These included four MECOM-r cell-lines (AML-191, AML-194, UCSD-AML1 and HNT-34) and three non-MECOM-r AMLs (MV4-11, OCI-AML3 and SET-2). Exploiting the mechanistic redundancy built in the library, we identified target-level sensitivities in MECOM-r AML cells and relative activity as compared to other AML subtypes.
as §3

Assay [5] is described as follows: BET inhibitor-based combinations targeting novel dependencies in MECOM-rearranged (r) AML: AML-191 cell line (AID 2202236; further: nearly all actives have a fitted effect of over 35% in size). Conditions: AML-191 viability, CellTiter-Glo luminescence, 48 h. The essentials: as §1
A short description of assay [6]: BET inhibitor-based combinations targeting novel dependencies in MECOM-rearranged (r) AML: AML-194 cell line (AID 2202237; further: nearly all actives have a fitted effect of over 40% in size). To be noted: AML-194 (MECOM-r AML) viability, CellTiter-Glo, 48 h. The method in brief: as §1
Assay [7] is described as follows: BET inhibitor-based combinations targeting novel dependencies in MECOM-rearranged (r) AML: MV-4-11 cell line (AID 2202233). Further: nearly all actives have a fitted effect of over 45% in size. Conditions: MV-4-11 AML viability, CellTiter-Glo luminescence, 48 h.
Source text: as §2, §3

This is a selection; strong and weak results do not stand in their true shares. Results filed as inconclusive are left out. Active and inactive are the calls of the source. The call rests on the fitted dose curve; in most records, active means well fitted curve in the direction sought with a large enough effect; inconclusive means small, poorly fitted or top-dose-only effect, or another doubt; inactive means no such curve, though single readings can be large; an effect the other way counts as inactive or inconclusive.
Potency means the concentration at half of the fitted maximal effect.

For the compound `CCN1CCN(Cc2ccc(NC(=O)Nc3ccc(Oc4cc(NC)ncn4)cc3)cc2C(F)(F)F)CC1`, the Potency in assay [1] was active: 8.33 µM; in assay [2] it was active: 7.42 µM; in assay [3], active: 0.59 µM; in assay [4] it was active: 2.95 µM; in assay [5], active: 4.68 µM; in assay [6] it was active: 4.17 µM.

`O=C(CCCCCCC(=O)Nc1ccccc1)NO`: the Potency in assay [1], in assay [4] and in assay [6] was active: 2.35 µM in each case.

With `CCS(=O)(=O)N1CC(CC#N)(n2cc(-c3ncnc4[nH]ccc34)cn2)C1`, in assay [2], the Potency result is “inactive”. Further, the Potency in assay [7] is active: 20.9 µM; in assay [4], active: 1.32 µM.
